Record: PubChem BioAssay AID743458 (Peter MacCallum Cancer Centre, 2014)
Purpose: 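Retest earlier hits with independent siRNAs per gene for restoring vorinostat sensitivity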 (follow-up of hits). Cells: human HCT116-VR colon cancer cells made resistant to vorinostat. Knock-down reagent: single siRNA or pool against human genes, 25 nM per single siRNA. Time to read-out: about 72 h after transfection, including 24 h of drug. Challenge: vorinostat, 2.5 µM final, for 24 h. Measurement: 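Live-cell fluorescent viability and luminescent caspase 3/7 activity after vorinostat treatment, background subtracted, mean of duplicate plates, as fold change over mock-transfected wells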. Scale: viability relative to mock: higher = more living cells than mock; caspase activity relative to mock: higher = more apoptosis than mock. Rule for the call: 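Active means a reduced-viability or caspase-activation class, anything else inactive; classes could only be given to wells that looked healthy when left untreated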.
Shown is an unselected part of about 1,800 reagents tested. 732 of them (41%) count as active. 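Calls are per siRNA reagent; a gene was deemed confirmed only if most of its four siRNAs scored.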 Unmarked entries are inactive.

{"gene": "VAX1 (ventral anterior homeobox 1)", "PubChem SID": "SID134306846", "viability relative to mock": "0.75 (active)", "caspase activity relative to mock": 2.76, "viability hit class": "no change", "caspase hit class": "caspase activation"}
{"gene": "VAX1 (ventral anterior homeobox 1)", "PubChem SID": "SID134306847", "viability relative to mock": "0.86 (active)", "caspase activity relative to mock": 3.24, "viability hit class": "no change", "caspase hit class": "caspase activation"}
{"gene": "VAX1 (ventral anterior homeobox 1)", "PubChem SID": "SID135618063", "viability relative to mock": "0.91 (active)", "caspase activity relative to mock": 3.77, "viability hit class": "no change", "caspase hit class": "caspase activation"}
{"gene": "VAX1 (ventral anterior homeobox 1)", "PubChem SID": "SID135618064", "viability relative to mock": 0.82, "caspase activity relative to mock": 2.36, "viability hit class": "no change", "caspase hit class": "no change"}
{"gene": "BDP1 (BDP1 general transcription factor IIIB subunit)", "PubChem SID": "SID134285553", "viability relative to mock": 0.9, "caspase activity relative to mock": 1.08, "viability hit class": "no change", "caspase hit class": "no change"}
{"gene": "BDP1 (BDP1 general transcription factor IIIB subunit)", "PubChem SID": "SID134285554", "viability relative to mock": "0.52 (active)", "caspase activity relative to mock": 0.79, "viability hit class": "reduced viability", "caspase hit class": "no change"}
{"gene": "BDP1 (BDP1 general transcription factor IIIB subunit)", "PubChem SID": "SID134285555", "viability relative to mock": "0.42 (active)", "caspase activity relative to mock": 1.3, "viability hit class": "reduced viability", "caspase hit class": "no change"}
{"gene": "BDP1 (BDP1 general transcription factor IIIB subunit)", "PubChem SID": "SID134285556", "viability relative to mock": "0.56 (active)", "caspase activity relative to mock": 0.84, "viability hit class": "reduced viability", "caspase hit class": "no change"}
{"gene": "PNN (pinin, desmosome associated protein)", "PubChem SID": "SID134281857", "viability relative to mock": "0.16 (active)", "caspase activity relative to mock": 2.74, "viability hit class": "reduced viability", "caspase hit class": "caspase activation"}
{"gene": "PNN (pinin, desmosome associated protein)", "PubChem SID": "SID134281858", "viability relative to mock": "0.52 (active)", "caspase activity relative to mock": 4.07, "viability hit class": "reduced viability", "caspase hit class": "caspase activation"}
{"gene": "PNN (pinin, desmosome associated protein)", "PubChem SID": "SID134281859", "viability relative to mock": "0.5 (active)", "caspase activity relative to mock": 4.67, "viability hit class": "reduced viability", "caspase hit class": "caspase activation"}
{"gene": "PNN (pinin, desmosome associated protein)", "PubChem SID": "SID134281860", "viability relative to mock": "0.44 (active)", "caspase activity relative to mock": 3.05, "viability hit class": "reduced viability", "caspase hit class": "caspase activation"}
{"gene": "NUDT10 (nudix hydrolase 10)", "PubChem SID": "SID134294285", "viability relative to mock": 0.85, "caspase activity relative to mock": 1.37, "viability hit class": "no change", "caspase hit class": "no change"}
{"gene": "NUDT10 (nudix hydrolase 10)", "PubChem SID": "SID134294286", "viability relative to mock": 1.13, "caspase activity relative to mock": 1.8, "viability hit class": "no change", "caspase hit class": "no change"}
{"gene": "NUDT10 (nudix hydrolase 10)", "PubChem SID": "SID134294287", "viability relative to mock": "0.36 (active)", "caspase activity relative to mock": 1.65, "viability hit class": "reduced viability", "caspase hit class": "no change"}
{"gene": "NUDT10 (nudix hydrolase 10)", "PubChem SID": "SID134294288", "viability relative to mock": "0.34 (active)", "caspase activity relative to mock": 3.92, "viability hit class": "reduced viability", "caspase hit class": "caspase activation"}
